Percent effect of library compounds

From ChEMBL document CHEMBL3988442, “University of Dundee, Small-Polar-MMV Screening Library” (2021).

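Assay of Toxoplasma gondii numbers, read through their beta-galactosidase reporter with a colour substrate. Tested at 50 µM. The record gives no direction; the compounds picked for IC50 retests had high values, so higher reads as fewer parasites. Of about 18,000 compounds tested this way, about 170 (0.94%) reached 50% or more in at least one test.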

The filed quantity is “Percent Effect” (%). The record does not define 0% and 100%; most values in the screen are far below 50% and negative numbers occur (in some assays of this library far below -100). This is an unselected part of the compounds tested.

| compound | Percent Effect |
|---|---|
| `CCN1CCN(CC(=O)Nc2cc(C)ccc2C)CC1` | 2.587 |
| `O=C(NCc1cccc(Cl)c1)c1cnns1` | -15.41 |
| `NC(=O)C1CCN(CC(=O)NCC(F)(F)F)CC1` | -18.29 |
| `NC(=O)c1cnc(NC2CCc3ccccc32)c(Cl)c1` (stereo not drawn) | -13.57 |
| `OC1(C(F)(F)F)CCNC1` (stereo not drawn) | -3.18 |
| `NC1CCN(CC2CC2)CC1` | 2.288 |
| `COc1ccccc1C(=O)N1CCN(C2CC2)C(=O)C1` | -3.275 |
| `COC(=O)Cc1nc2ccccc2[nH]1` | -17.04 |
| `Cc1scc(-c2nnc(SCC(N)=O)n2C)c1C` | -29.64 |
| `CCNc1ncc(C(=O)N2CCC(N(C)C)C2)cn1` (stereo not drawn) | 10.21 |
| `COc1c(CNCc2nnc(C)n2C)c(C)nn1C` | 5.142 |
| `Cn1c(=O)n(C)c2cc(S(N)(=O)=O)ccc21` | 0.888 |
| `CC(C)CCN(CC(N)=O)C1CC1` | 2.61 |
| `C[C@@H]1CCNC[C@H](C)O1` | 14.14 |
| `Cc1cc(C(=O)Nc2ccnn2C(C)C)on1` | -2.909 |
| `O=S(=O)(Cc1ccc(F)c(Cl)c1)NC1CCCNC1` (stereo not drawn) | 11.4 |
| `N#CC1CCCN(C(=O)c2cnc3ccccc3c2)C1` (stereo not drawn) | -3.341 |
| `CCn1nnnc1SCc1cc(C#N)ccc1F` | 11.21 |
| `CN1CCC(NC(=O)CCCOc2ccccc2)CC1` | 4.464 |
| `O=S(=O)(CC1CCCC1)N1CCCC(CO)C1` (stereo not drawn) | 0.1083 |
| `CC(C)NC(=O)C1CC(=O)N(C(C)C)C1` (stereo not drawn) | -6.202 |
| `CC(O)COc1ccccc1CN` (stereo not drawn) | 5.357 |
| `CN(Cc1ccccc1OCCO)C1CCOCC1` | -9.184 |
| `CCCNC(=O)c1ccc2ncn(C)c(=O)c2c1` | -1.293 |
| `CSc1ncccc1C(=O)NC(C)c1nc(C)c[nH]1` (stereo not drawn) | -4.854 |
| `Cc1cnccc1NCCNC(=O)Cc1ccccn1` | -14.36 |
| `CC(C)N1CC(NC(=O)c2ccc3ccccc3n2)C1` | 12.9 |
| `Cc1cc(C)n(C2CCCNC2)n1` (stereo not drawn) | 1.275 |
| `CCNC(=O)CNC(=O)c1csc(-c2cnccn2)n1` | 16.59 |
| `CC1c2cccn2CCN1C(=O)c1ccc(O)nc1` (stereo not drawn) | -0.8603 |
| `O=C(CN1CCNC(=O)C1)NCCOc1ccccc1` | -5.046 |
| `N#Cc1c[nH]c(C(=O)NCC(=O)N2CCNCC2)c1` | -5.926 |
| `CC(C)C(=O)NC(C)C(=O)N1CCCCC1` (stereo not drawn) | 11.72 |
| `CC1CCCCN1CCNC(=O)c1ccccn1` (stereo not drawn) | 1.645 |
| `CCn1c(C)cc(C(=O)Nc2ncccc2O)c1C` | -8.336 |
| `COC(=O)C1CN(Cc2ccncc2Cl)CCO1` (stereo not drawn) | -10.3 |
| `CN(C)[C@@H]1CN(C(=O)c2cccn2C)C[C@H]1CO` | -4.756 |
| `CCCOCC(=O)N1C[C@@H](CN(C)C)[C@@H](CO)C1` | 7.768 |
| `CCCc1noc(CN2CCC(CO)CC2)n1` | 2.049 |
| `Cn1cc(C(N)CO)cn1` (stereo not drawn) | -6.849 |
| `N#Cc1ccc(NC(=O)CCN2CCC[C@H]2CO)cc1` | 10.36 |
| `COC(=O)Cc1ccc(OCC(=O)NC2CC2)cc1` | 7.467 |
| `NCCc1nc(-c2ccccn2)cs1` | 5.57 |
| `O=c1oc(-c2ccc(F)cc2)nn1Cc1cccnc1` | 0.6751 |
| `CC(NC(=O)NC1CCN(C)CC1)c1ccncc1F` (stereo not drawn) | -2.982 |
| `C[C@@H](CO)Nc1ncc(Cl)cc1Br` | -0.106 |
| `C[C@@H](CO)NC(=O)C1(C)CCCc2ccccc21` (stereo partly drawn) | 3.897 |
| `O=C(CN1CCC(CO)CC1)N1CCc2sccc2C1` | 26.69 |
| `CN(C)C(CNC(=O)Nc1cn[nH]c1)c1ccsc1` (stereo not drawn) | 1.783 |
| `NC(=O)Nc1cccc(C(=O)NCC2CCCCO2)c1` (stereo not drawn) | 0.5433 |
| `CC(C)(CO)NC(=O)c1cccc(OCC(F)F)n1` | 2.165 |
| `Cc1cc(NC(=O)NC2CCS(=O)(=O)CC2)ccc1F` | 2.179 |
| `CNCCCC(=O)Nc1cccc2c1OCCO2` | -9.174 |
| `Cc1cc(N)n(C2CCCC2)n1` | -66.83 |
| `CS(=O)(=O)CC1(CN2CCNC(=O)CC2)CCC1` | 1.079 |
| `Cc1cc(Br)cc(C(=O)NC2(C(N)=O)CC2)c1` | 10.26 |
| `N#CC1CCN(C(=O)c2ccc(SCCO)cc2)CC1` | -14.8 |
| `Cc1cccc(CS(=O)(=O)NCc2ccncc2)c1` | 7.546 |
| `CC(C)(CNC(=O)c1ccccn1)N1CC[S+]([O-])CC1` | 17.44 |
| `CC(=O)N1Cc2ccccc2C[C@H]1C(=O)N1CCCC1` | -2.3 |
| `COC1CCN(CCC(=O)Nc2cccnc2)C1` (stereo not drawn) | 16.04 |
| `CCC(NC(=O)CCc1cccc(O)c1)[C@H]1C[C@H](O)C1` (stereo partly drawn) | -3.003 |
| `CN1CCN(S(C)(=O)=O)Cc2ccccc21` | 22.55 |
| `COc1cc(CN)cc(Cl)c1OC` | 0.683 |
| `COCc1cccc(C(=O)Nc2ccncc2)c1` | -8.978 |
| `O=C(CCCn1cccn1)N[C@H]1C[C@@H]2OCC[C@H]12` | 16.13 |
| `CCOC(=O)c1cnn2cccnc12` | -3.177 |
| `COc1cc(O)c(C(C)=O)cc1OC` | 0.6846 |
| `CN(C)Cc1nnc(-c2ccccc2)o1` | 4.493 |
| `COc1cc(C(=O)N[C@@H]2CC[C@@H](N)C2)ccc1F` | 0.8246 |
| `NC(=O)C1(CNc2ncc(Br)cn2)CCOCC1` | -28.19 |
| `CN(C(=O)CSCC#N)C1CCCCC1` | -11.54 |
| `CCCC(=O)N1CCCC1C(=O)Nc1cnccn1` (stereo not drawn) | -0.3053 |
| `CNC(=O)Cc1ccc(-c2ccc(F)c(CO)c2)cc1` | -6.664 |
| `CC1(CO)CCCN1Cc1ccccc1` (stereo not drawn) | 0.9962 |
| `OCCCNCC(O)COc1ccccc1` (stereo not drawn) | -2.759 |
| `c1n[nH]c2c1CNC2` | 6.241 |
| `CC1CS(=O)(=O)CCN1CC(=O)N(C)Cc1ccco1` (stereo not drawn) | -11.12 |
| `CNC(=O)C(O)CN` (stereo not drawn) | -5.152 |
| `CC(C)C(=O)N1CCC(N)C1` (stereo not drawn) | -6.456 |
| `Cc1ccc(C(=O)NCc2c[nH]nn2)c(F)c1` | -12.29 |
| `Nc1ncccc1CN1CCCN(C2CCCC2)CC1` | 1.197 |
| `Cc1cc(F)ccc1NC(=O)NCC1(O)CCCNC1` (stereo not drawn) | 3.862 |

Repeated from the top, 8 entries:

| compound | Percent Effect |
|---|---|
| `CCN1CCN(CC(=O)Nc2cc(C)ccc2C)CC1` | 2.587 |
| `O=C(NCc1cccc(Cl)c1)c1cnns1` | -15.41 |
| `NC(=O)C1CCN(CC(=O)NCC(F)(F)F)CC1` | -18.29 |
| `NC(=O)c1cnc(NC2CCc3ccccc32)c(Cl)c1` (stereo not drawn) | -13.57 |
| `OC1(C(F)(F)F)CCNC1` (stereo not drawn) | -3.18 |
| `NC1CCN(CC2CC2)CC1` | 2.288 |
| `COc1ccccc1C(=O)N1CCN(C2CC2)C(=O)C1` | -3.275 |
| `COC(=O)Cc1nc2ccccc2[nH]1` | -17.04 |